Measurements as given in patent US20040044006A1, “Methods of use of quinolone compounds against pneumococcal and haemophilus bacteria” (priority 1999, published 2004).
The name of at least one read-out is uncertain.

Tested on: penicillin susceptible and resistant pneumococcal strains (2 quinolone resistant)
Assay: Time-kill testing of 12 pneumococcal strains
Format: cell-based, Streptococcus pneumoniae
Conditions: of 12 strains (macrolides 7)
Description: For time-kill studies, glass tubes containing 5 ml cation-adjusted Mueller-Hinton broth (Difco)+5% lysed horse blood with doubling antibiotic concentrations were inoculated with 5×10^5 to 5×10^6 cfu/ml and incubated at 35° C. in a shaking water bath. […] Growth controls with inoculum but no antibiotic were included with each experiment (Pankuch, et al., Antimicrob. Agents Chemother. 38:2065-2072, 1994; Pankuch, et al., Antimicrob. Agents Chemother. 40:1653-1656, 1996).
Lysed horse blood was prepared as described previously. The bacterial inoculum was prepared by diluting a 16 h broth (medium as above) culture in the same medium. Dilutions required to obtain the correct inoculum (5×10^5-5×10^6 cfu/ml) were determined by prior viability studies using each strain (Pankuch, et al., Antimicrob. Agents Chemother. 38:2065-2072, 1994; Pankuch, et al., Antimicrob. Agents Chemother. 40: 1653-1656, 1996).
To inoculate each tube of serially diluted antibiotic, 50 μl of diluted inoculum was delivered by pipette beneath the surface of the broth. Tubes were then vortexed and plated for viability counts within 10 min (approximately 0.2 h). The original inoculum was determined by using the untreated growth control. Only tubes containing an initial inoculum within the range of 5×10^5 to 5×10^6 cfu/ml were acceptable (Pankuch, et al., Antimicrob. Agents Chemother. 38:2065-2072, 1994; Pankuch, et al., Antimicrob. Agents Chemother. 40:1653-1656, 1996).
Viability counts of antibiotic-containing suspensions were performed by plating ten-fold dilutions of 0.1 ml aliquots from each tube in sterile Mueller-t-Hinton broth onto trypticase soy agar 5% sheep blood agar plates (BBL). Recovery plates were incubated for up to 72 h. Colony Counts were performed on plates yielding 30-300 colonies. The lower limit of sensitivity of colony counts was 300 cfu/ml (Pankuch, et al., Antimicrob. Agents Chemother. 38:2065-2072, 1994; Pankuch, et al., Antimicrob. Agents Chemother. 40:1653-1656, 1996).
Time-kill assays were analysed by determining the number of strains which yielded a log10 cfu/ml of −1, −2 and −3 at 0, 3, 6, 12 and 24 h, compared to counts at time 0 h. Antimicrobials were considered bactericidal at the lowest concentration that reduced the original inoculum by ≧3 log10 cfu/ml (99.9%) at each of the time periods, and bacteriostatic if the inoculum was reduced by 0-3 log10 cfu/ml. […] The problem of bacterial carryover was addressed as described previously. For macrolide time-kill testing, only strains with MICs≦4.0 μg/ml were tested (Pankuch, et al., Antimicrob. Agents Chemother. 38:2065-9072, 1994; Pankuch, et al., Antimicrob. Agents Chemother. 40:1653-1656, 1996).

**Q.** What does the source list for `CC[C@H]1OC(=O)[C@H](C)[C@@H](O[C@H]2C[C@@](C)(OC)[C@@H](O)[C@H](C)O2)[C@H](C)[C@@H](O[C@@H]2O[C@H](C)C[C@H](N(C)C)[C@H]2O)[C@](C)(O)C[C@@H](C)CN(C)[C@H](C)[C@@H](O)[C@]1(C)O` [Azithromycin, azithromycin]?
**A.** No. strains −1 Log10 cfu/ml lower than 0 h (3 h, 0.25 × MIC): 0 No. strains; No. strains −2 Log10 cfu/ml lower than 0 h (3 h, 0.25 × MIC): 0 No. strains; No. strains −3 Log10 cfu/ml lower than 0 h (3 h, 0.25 × MIC): 0 No. strains; No. strains −1 Log10 cfu/ml lower than 0 h (3 h, 0.5 × MIC): 1 No. strains; No. strains −2 Log10 cfu/ml lower than 0 h (3 h, 0.5 × MIC): 0 No. strains; No. strains −3 Log10 cfu/ml lower than 0 h (3 h, 0.5 × MIC): 0 No. strains; No. strains −1 Log10 cfu/ml lower than 0 h (3 h, 2 × MIC): 3 No. strains; No. strains −2 Log10 cfu/ml lower than 0 h (3 h, 2 × MIC): 1 No. strains; No. strains −3 Log10 cfu/ml lower than 0 h (3 h, 2 × MIC): 0 No. strains; No. strains −1 Log10 cfu/ml lower than 0 h (3 h, 4 × MIC): 4 No. strains; No. strains −2 Log10 cfu/ml lower than 0 h (3 h, 4 × MIC): 1 No. strains; No. strains −3 Log10 cfu/ml lower than 0 h (3 h, 4 × MIC): 0 No. strains; No. strains −1 Log10 cfu/ml lower than 0 h (3 h, 8 × MIC): 3 No. strains; No. strains −2 Log10 cfu/ml lower than 0 h (3 h, 8 × MIC): 1 No. strains; No. strains −3 Log10 cfu/ml lower than 0 h (3 h, 8 × MIC): 0 No. strains; No. strains −1 Log10 cfu/ml lower than 0 h (3 h, MIC): 2 No. strains; No. strains −2 Log10 cfu/ml lower than 0 h (3 h, MIC): 0 No. strains; No. strains −3 Log10 cfu/ml lower than 0 h (3 h, MIC): 0 No. strains; No. strains −1 Log10 cfu/ml lower than 0 h (6 h, 0.25 × MIC): 0 No. strains; No. strains −2 Log10 cfu/ml lower than 0 h (6 h, 0.25 × MIC): 0 No. strains; No. strains −3 Log10 cfu/ml lower than 0 h (6 h, 0.25 × MIC): 0 No. strains; No. strains −1 Log10 cfu/ml lower than 0 h (6 h, 0.5 × MIC): 1 No. strains; No. strains −2 Log10 cfu/ml lower than 0 h (6 h, 0.5 × MIC): 1 No. strains; No. strains −3 Log10 cfu/ml lower than 0 h (6 h, 0.5 × MIC): 1 No. strains; No. strains −1 Log10 cfu/ml lower than 0 h (6 h, 2 × MIC): 4 No. strains; No. strains −2 Log10 cfu/ml lower than 0 h (6 h, 2 × MIC): 2 No. strains; No. strains −3 Log10 cfu/ml lower than 0 h (6 h, 2 × MIC): 2 No. strains; No. strains −1 Log10 cfu/ml lower than 0 h (6 h, 4 × MIC): 6 No. strains; No. strains −2 Log10 cfu/ml lower than 0 h (6 h, 4 × MIC): 3 No. strains; No. strains −3 Log10 cfu/ml lower than 0 h (6 h, 4 × MIC): 2 No. strains; No. strains −1 Log10 cfu/ml lower than 0 h (6 h, 8 × MIC): 6 No. strains; No. strains −2 Log10 cfu/ml lower than 0 h (6 h, 8 × MIC): 4 No. strains; No. strains −3 Log10 cfu/ml lower than 0 h (6 h, 8 × MIC): 2 No. strains; No. strains −1 Log10 cfu/ml lower than 0 h (6 h, MIC): 3 No. strains; No. strains −2 Log10 cfu/ml lower than 0 h (6 h, MIC): 2 No. strains; No. strains −3 Log10 cfu/ml lower than 0 h (6 h, MIC): 2 No. strains; No. strains −1 Log10 cfu/ml lower than 0 h (12 h, 0.25 × MIC): 0 No. strains; No. strains −2 Log10 cfu/ml lower than 0 h (12 h, 0.25 × MIC): 0 No. strains; No. strains −3 Log10 cfu/ml lower than 0 h (12 h, 0.25 × MIC): 0 No. strains; No. strains −1 Log10 cfu/ml lower than 0 h (12 h, 0.5 × MIC): 1 No. strains; No. strains −2 Log10 cfu/ml lower than 0 h (12 h, 0.5 × MIC): 1 No. strains; No. strains −3 Log10 cfu/ml lower than 0 h (12 h, 0.5 × MIC): 1 No. strains; No. strains −1 Log10 cfu/ml lower than 0 h (12 h, 2 × MIC): 5 No. strains; No. strains −2 Log10 cfu/ml lower than 0 h (12 h, 2 × MIC): 5 No. strains; No. strains −3 Log10 cfu/ml lower than 0 h (12 h, 2 × MIC): 4 No. strains; No. strains −1 Log10 cfu/ml lower than 0 h (12 h, 4 × MIC): 6 No. strains; No. strains −2 Log10 cfu/ml lower than 0 h (12 h, 4 × MIC): 5 No. strains; No. strains −3 Log10 cfu/ml lower than 0 h (12 h, 4 × MIC): 4 No. strains; No. strains −1 Log10 cfu/ml lower than 0 h (12 h, 8 × MIC): 7 No. strains; No. strains −2 Log10 cfu/ml lower than 0 h (12 h, 8 × MIC): 5 No. strains; No. strains −3 Log10 cfu/ml lower than 0 h (12 h, 8 × MIC): 5 No. strains; No. strains −1 Log10 cfu/ml lower than 0 h (12 h, MIC): 5 No. strains; No. strains −2 Log10 cfu/ml lower than 0 h (12 h, MIC): 5 No. strains; No. strains −3 Log10 cfu/ml lower than 0 h (12 h, MIC): 2 No. strains; No. strains −1 Log10 cfu/ml lower than 0 h (24 h, 0.25 × MIC): 0 No. strains; No. strains −2 Log10 cfu/ml lower than 0 h (24 h, 0.25 × MIC): 0 No. strains; No. strains −3 Log10 cfu/ml lower than 0 h (24 h, 0.25 × MIC): 0 No. strains; No. strains −1 Log10 cfu/ml lower than 0 h (24 h, 0.5 × MIC): 1 No. strains; No. strains −2 Log10 cfu/ml lower than 0 h (24 h, 0.5 × MIC): 1 No. strains; No. strains −3 Log10 cfu/ml lower than 0 h (24 h, 0.5 × MIC): 1 No. strains; No. strains −1 Log10 cfu/ml lower than 0 h (24 h, 2 × MIC): 7 No. strains; No. strains −2 Log10 cfu/ml lower than 0 h (24 h, 2 × MIC): 7 No. strains; No. strains −3 Log10 cfu/ml lower than 0 h (24 h, 2 × MIC): 5 No. strains; No. strains −1 Log10 cfu/ml lower than 0 h (24 h, 4 × MIC): 7 No. strains; No. strains −2 Log10 cfu/ml lower than 0 h (24 h, 4 × MIC): 7 No. strains; No. strains −3 Log10 cfu/ml lower than 0 h (24 h, 4 × MIC): 7 No. strains; No. strains −1 Log10 cfu/ml lower than 0 h (24 h, 8 × MIC): 7 No. strains; No. strains −2 Log10 cfu/ml lower than 0 h (24 h, 8 × MIC): 7 No. strains; No. strains −3 Log10 cfu/ml lower than 0 h (24 h, 8 × MIC): 7 No. strains; No. strains −1 Log10 cfu/ml lower than 0 h (24 h, MIC): 7 No. strains; No. strains −2 Log10 cfu/ml lower than 0 h (24 h, MIC): 6 No. strains; No. strains −3 Log10 cfu/ml lower than 0 h (24 h, MIC): 5 No. strains
